Test results: publication PMC4035898
Results are given in words; binding and its absence hold for the method and conditions named. In cells and extracts the contact can be indirect. Some entries that bind do so weakly or less than the wild type.

Protein sequences, listed by entry. Tags and fused reporters are not part of them.
UniProt P46937: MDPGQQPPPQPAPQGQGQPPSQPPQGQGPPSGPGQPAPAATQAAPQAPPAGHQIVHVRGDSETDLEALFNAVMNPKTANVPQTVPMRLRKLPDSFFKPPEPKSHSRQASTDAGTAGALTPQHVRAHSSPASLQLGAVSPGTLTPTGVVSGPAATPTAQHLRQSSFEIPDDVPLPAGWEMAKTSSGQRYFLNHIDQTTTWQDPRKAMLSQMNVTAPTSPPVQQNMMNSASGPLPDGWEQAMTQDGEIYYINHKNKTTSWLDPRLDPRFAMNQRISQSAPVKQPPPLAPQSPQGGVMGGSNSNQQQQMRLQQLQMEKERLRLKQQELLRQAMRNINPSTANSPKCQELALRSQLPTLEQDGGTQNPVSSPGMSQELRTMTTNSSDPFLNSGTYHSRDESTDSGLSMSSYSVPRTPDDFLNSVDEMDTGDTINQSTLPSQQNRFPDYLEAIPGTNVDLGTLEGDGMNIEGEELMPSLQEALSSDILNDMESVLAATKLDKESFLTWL
UniProt Q969H0: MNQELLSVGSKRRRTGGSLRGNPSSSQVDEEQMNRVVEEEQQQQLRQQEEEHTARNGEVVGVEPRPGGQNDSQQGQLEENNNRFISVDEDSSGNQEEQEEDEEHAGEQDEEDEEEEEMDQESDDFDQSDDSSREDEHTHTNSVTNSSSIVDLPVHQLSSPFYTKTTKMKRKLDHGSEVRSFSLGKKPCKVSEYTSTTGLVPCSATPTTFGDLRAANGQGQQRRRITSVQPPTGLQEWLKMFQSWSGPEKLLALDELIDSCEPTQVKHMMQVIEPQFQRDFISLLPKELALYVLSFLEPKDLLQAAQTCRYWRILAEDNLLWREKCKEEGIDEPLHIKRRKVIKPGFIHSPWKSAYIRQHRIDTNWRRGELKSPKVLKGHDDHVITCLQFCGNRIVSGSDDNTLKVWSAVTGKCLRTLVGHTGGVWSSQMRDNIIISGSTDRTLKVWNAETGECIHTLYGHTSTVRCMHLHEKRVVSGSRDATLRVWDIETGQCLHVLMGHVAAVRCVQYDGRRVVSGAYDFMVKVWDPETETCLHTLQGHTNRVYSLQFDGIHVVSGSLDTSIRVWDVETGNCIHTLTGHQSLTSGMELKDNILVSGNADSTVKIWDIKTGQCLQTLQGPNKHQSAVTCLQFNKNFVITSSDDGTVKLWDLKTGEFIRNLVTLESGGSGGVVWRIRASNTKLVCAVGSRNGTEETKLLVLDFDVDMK

Assays:
[1] = target: HA-YAP (Yes-associated protein) (UniProt P46937); experiment: co-IP; Flag-Fbxw7 and HA-YAP plasmids transfected into HEK293 cells; 500 ug total protein lysate with 1 ug anti-HA or anti-Flag antibody or IgG, 4°C 2 hours, Protein G Sepharose 1 hour, washed three times; western blot
[2] = target: Flag-Fbxw7 (F-box and WD repeat domain-containing 7) (UniProt Q969H0); experiment: as above

| binding [1] | binding [2] | Substance |
| --- | --- | --- |
| binds |  | Flag-Fbxw7 (F-box and WD repeat domain-containing 7) (from UniProt Q969H0 1-707) |
|  | binds | HA-YAP (Yes-associated protein) (from UniProt P46937 1-504) |
